The values below come from article PMC10247727, “Stabilization of pre-existing neurotensin receptor conformational states by β-arrestin-1 and the biased allosteric modulator ML314” (Nature Communications, 2023).

Experiment [1] addresses NT8-13:enNTS1ΔM4 complex (rat | not stated). In words: NMR titration; 1H-13C SOFAST-HMQC of 66 μM [13CεH3-methionine]-enNTS1ΔM4 with 500 μM NT8-13, 130 μM PIP2 and 0.3-3x molar equivalents of unlabelled βArr1-3A; DDM, 50 mM potassium phosphate pH 7.4, 100 mM NaCl, 298 K; without PIP2 only limited spectral changes; both purified.
For experiment [2] the target is unchanged. In words: NMR (1H-13C HMQC spectra); 66 μM [13CεH3-methionine]-enNTS1ΔM4 with NT8-13 and ML314 (500 μM each), 130 μM PIP2 and 2.3x molar equivalents βArr1-3A, 298 K; both purified.

Results are given in words; binding and its absence hold for the method and conditions named. A result given as binding can be weak or reduced; the word gives no strength. Where a sequence is shown, tags or fusion partners need not be part of it.

B1: βArr1-3A (pre-activated cysteine-free human β-arrestin-1, I386A/V387A/F388A), tags removed (natural protein)
chain: GPSGDKGTRVFKKASPNGKLTVYLGKRDFVDHIDLVDPVDGVVLVDPEYLKERRVYVTLTVAFRYGREDLDVLGLTFRKDLFVANVQSFPPAPEDKKPLTRLQERLIKKLGEHAYPFTFEIPPNLPSSVTLQPGPEDTGKALGVDYEVKAFVAENLEEKIHKRNSVRLVIRKVQYAPERPGPQPTAETTRQFLMSDKPLHLEASLDKEIYYHGEPISVNVHVTNNTNKTVKKIKISVRQYADIVLFNTAQYKVPVAMEEADDTVAPSSTFSKVYTLTPFLANNREKRGLALDGKLKHEDTNLASSTLLREGANREILGIIVSYKVKVKLVVSRGGLLGDLASSDVAVELPFTLMHPKPKEEPPHREVPENETPVDTNLIELDTNDDDAAAEDFARQRLKGMKDDKEEEEDGTGSPQLNNR
notes: residues left after HRV 3C cleavage (so in the source); human β-arrestin-1, cysteine-free, 3A mutant; Used in the NMR experiments, unlabelled or [U-15N,13C,2H]-labelled; also called hβArr1-3A; βArr-3A; source: E. coli BL21(DE3), purified (Ni-NTA, HRV 3C cleavage, HiTrap Q, SEC); not shown: His6, N-terminal, cleaved; Protein C tag, N-terminal, cleaved
Consider B1, for which the binding entry in experiment [1] and in experiment [2] was “binds” throughout.
